These results are taken from patent US8685658B2, “Compositions and methods for the treatment of diseases associated with aberrant cilia assembly and regulation” (Fox Chase Cancer Center, priority 2006, dated 2014).

Amino acid sequences for entries named in this document (tags omitted).
UniProt Q9UBN7: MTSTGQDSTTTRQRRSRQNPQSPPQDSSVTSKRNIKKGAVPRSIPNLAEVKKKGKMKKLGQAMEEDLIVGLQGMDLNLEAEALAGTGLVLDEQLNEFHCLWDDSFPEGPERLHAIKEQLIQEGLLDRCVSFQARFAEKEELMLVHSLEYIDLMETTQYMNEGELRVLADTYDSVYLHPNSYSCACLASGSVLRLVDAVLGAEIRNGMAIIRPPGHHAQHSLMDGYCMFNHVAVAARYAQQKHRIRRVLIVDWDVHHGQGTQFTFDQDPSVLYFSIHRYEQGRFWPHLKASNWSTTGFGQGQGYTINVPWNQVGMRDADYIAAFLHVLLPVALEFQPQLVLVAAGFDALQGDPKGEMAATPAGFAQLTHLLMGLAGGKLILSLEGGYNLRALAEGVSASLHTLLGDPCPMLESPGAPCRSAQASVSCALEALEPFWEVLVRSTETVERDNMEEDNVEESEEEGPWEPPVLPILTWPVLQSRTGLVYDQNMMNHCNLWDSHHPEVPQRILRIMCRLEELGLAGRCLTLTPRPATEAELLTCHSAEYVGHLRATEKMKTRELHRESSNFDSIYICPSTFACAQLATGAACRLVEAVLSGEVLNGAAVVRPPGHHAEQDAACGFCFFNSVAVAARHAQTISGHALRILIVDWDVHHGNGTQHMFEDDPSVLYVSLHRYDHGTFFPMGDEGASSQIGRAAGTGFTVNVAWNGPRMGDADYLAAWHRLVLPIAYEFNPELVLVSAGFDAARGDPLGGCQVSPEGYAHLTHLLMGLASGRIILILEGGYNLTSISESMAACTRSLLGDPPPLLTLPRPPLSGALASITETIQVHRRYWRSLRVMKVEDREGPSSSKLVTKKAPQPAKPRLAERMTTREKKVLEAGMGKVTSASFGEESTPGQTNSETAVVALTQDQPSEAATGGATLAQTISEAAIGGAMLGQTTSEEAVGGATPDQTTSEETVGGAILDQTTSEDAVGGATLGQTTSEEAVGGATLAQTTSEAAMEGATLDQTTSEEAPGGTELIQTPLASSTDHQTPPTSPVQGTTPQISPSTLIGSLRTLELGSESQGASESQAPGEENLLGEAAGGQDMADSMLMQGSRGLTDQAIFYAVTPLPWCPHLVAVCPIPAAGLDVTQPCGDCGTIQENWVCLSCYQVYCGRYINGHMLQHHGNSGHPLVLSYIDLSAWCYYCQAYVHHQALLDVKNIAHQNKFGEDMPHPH

These are yes or no findings as the source states them, for the method shown. Binding seen in cells or lysates may run through a third protein. Some binding calls cover weakened binding; strength is not graded here.

For assay [1], the target named is histone deacetylase 6 (HDAC6), endogenous in hTERT-RPE1 cells (UniProt Q9UBN7). Briefly: co-immunoprecipitation with antibody to AurA from hTERT-RPE1 whole cell lysate, Western blot (FIG. 9A legend).
Assay [2] shares this target. Briefly: co-immunoprecipitation from hTERT-RPE1 cell lysate with anti-AurA antibody, Western blot for HDAC6; not eliminated by pre-treatment with PHA-680632. A general note: A western blot detects proteins with antibodies after separation by electrophoresis.

B1: Aurora A (AurA) kinase, endogenous in hTERT-RPE1 cells (enzyme, human, UniProt O14965 1-403, looked up)
chain: MDRSKENCISGPVKATAPVGGPKRVLVTQQFPCQNPLPVNSGQAQRVLCPSNSSQRIPLQAQKLVSSHKPVQNQKQKQLQATSVPHPVSRPLNNTQKSKQPLPSAPENNPEEELASKQKNEESKKRQWALEDFEIGRPLGKGKFGNVYLAREKQSKFILALKVLFKAQLEKAGVEHQLRREVEIQSHLRHPNILRLYGYFHDATRVYLILEYAPLGTVYRELQKLSKFDEQRTATYITELANALSYCHSKRVIHRDIKPENLLLGSAGELKIADFGWSVHAPSSRRTTLCGTLDYLPPEMIEGRMHDEKVDLWSLGVLCYEFLVGKPPFEANTYQETYKRISRVEFTFPDFVTEGARDLISRLLKHNPSQRPMLREVLEHPWITANSSKPSNCQNKESASKQS
In the case of B1, the binding entry in assay [1] and in assay [2] was “binds” throughout.
